Results on 2 substances are retold here after PMC6098246, “Zinc(II) binding on human wild-type ISCU and Met140 variants modulates NFS1 desulfurase activity” (Biochimie, 2018).

Chains of the proteins cited; added tags and fusions are not shown. Lines headed by an entry give the natural chain unless they say otherwise; changes in a name come on top. Residues count along the entry.
UniProt Q9HD34: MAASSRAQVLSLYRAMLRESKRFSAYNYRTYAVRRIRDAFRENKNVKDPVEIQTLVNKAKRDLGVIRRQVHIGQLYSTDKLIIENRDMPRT
UniProt P0A6A8: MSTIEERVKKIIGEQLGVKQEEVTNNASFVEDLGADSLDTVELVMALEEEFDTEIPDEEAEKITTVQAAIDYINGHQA
UniProt Q9Y697, residues 56-457: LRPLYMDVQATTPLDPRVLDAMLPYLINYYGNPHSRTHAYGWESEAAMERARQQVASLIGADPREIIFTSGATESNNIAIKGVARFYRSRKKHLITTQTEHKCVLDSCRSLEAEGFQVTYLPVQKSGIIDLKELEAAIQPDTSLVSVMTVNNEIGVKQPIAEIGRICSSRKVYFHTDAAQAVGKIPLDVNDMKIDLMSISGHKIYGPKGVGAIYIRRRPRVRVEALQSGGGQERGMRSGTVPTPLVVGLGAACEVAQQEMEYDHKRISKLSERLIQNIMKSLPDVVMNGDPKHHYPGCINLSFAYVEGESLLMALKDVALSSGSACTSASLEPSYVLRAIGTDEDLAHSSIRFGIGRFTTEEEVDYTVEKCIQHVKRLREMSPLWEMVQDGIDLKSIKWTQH

The target of assay [1] is His-tagged human ISD11 (human) (UniProt Q9HD34). The assay is described as follows: co-purification (Ni affinity, gel filtration); bi-cistronic co-expression of His-ISD11 and non-tagged NFS1 in E. coli; Ni Sepharose, then Superdex S200. For orientation: Size exclusion chromatography separates by hydrodynamic size, large species first.
Assay [2] shares this target. Kind of assay: SEC; poly-cistronic co-expression of NFS1, His-ISD11 and ISCU in E. coli; Ni affinity, then analytical gel filtration (Sepax SRT SEC-300; 50 mM HEPES pH 7.5, 150 mM NaCl, 5% glycerol, 2 mM TCEP); TCA precipitation and SDS-PAGE of fractions.

Results are given in words; binding and its absence hold for the method and conditions named. Some entries that bind do so weakly or less than the wild type.

In the case of “E. coli acyl carrier protein (ACP) (from UniProt P0A6A8 1-78)”, the binding result in assay [1] and in assay [2] was “binds” in each case. For “non-tagged human NFS1 (Δ1-55) (from UniProt Q9Y697 56-457) (enzyme)”, the binding entry in assay [1] was “binds”.
